A number of entries come with more than one value. The other results are left out here. An entry can have further records. Values that stand side by side appear to be repeats on other runs, samples or individuals.
Legend:
HMC-1-8 = assay: Antiproliferation assay (Assay 7), HMC-1-8; details: read-out: Antiproli HMC-1-8 [M] IC50, CellTiter-Glo, 72 hours, several values per example
Description: (§1) Assessment of the Anti-Proliferative Effect of Compounds in Different Cell Lines
(§2) The impact of compounds on the proliferation of different cell lines was assessed using the CellTiter-Glo® Luminescent Cell Viability reagent from Promega (G7573).
(§3) The different cell lines were plated in culture medium (RPMI 1640 [Biochrom; #FG 1215] supplemented with 10% Fetal Calf Serum [Biochrom; #S 0415]) at a density of 3,300 cells (for suspension cells) or 800 cells (for adherent cells) in 30 μl/well in a sterile, solid black, flat bottom, polystyrene, TC-treated 384-well microplate (Corning #3571) using Multidrop Combi Reagent Dispenser. In parallel, cells were plated in a reference (day 0) plate for time zero determination. […]
(§4) On the next day, cells were treated with compounds (stock solution, 10 mM in DMSO) using the HP D300 Digital Dispenser in a concentration range of 3.3×10e-5 M (33 μM) to 5×10e-9 M (5 nM) in a single-dot curve with at least 16 dilutions and a DMSO concentration of 0.33%. […] The day 0 plate was measured by adding 30 μL/well of CTG solution (CellTiter-Glo® Luminescent Cell Viability reagent, Promega G7573) to time zero wells in the reference plate followed by a 10 minutes incubation and luminescence reading at 0.1 ms. using the PHERAstar FS microplate reader (BMG Labtech).
(§5) After 72 hours incubation, the treated plates were measured in the same way as the day 0 plate mentioned above. […]

AMO-1 = assay: Antiproliferation assay (Assay 7), AMO-1; details: read-out: Antiproli AMO-1 [M] IC50, CellTiter-Glo, 72 hours, several values per example, tested form: diethylamine salt
Description: as §1, §2, §3, §4, §5

Row | Compound | IC50 (HMC-1-8) | IC50 (AMO-1)
1 | CCc1c2c(nn1C)CNS(=O)(=O)CCCn1c(C(=O)O)c(CCCOc3cccc4cc(F)ccc34)c3ccc(Cl)c-2c31 | 13 µM and 1.8 µM | 
2 | CCc1c2c(nn1C)C(CCN1CCOCC1)N(C)S(=O)(=O)CCCn1c(C(=O)O)c(CCCOc3cccc4cc(F)ccc34)c3ccc(Cl)c-2c31 (single isomer, unassigned) [Example 76] |  | < 5 nM and 9.6 nM

Source: US11401278B2, “Macrocyclic indole derivatives” (The Broad Institute, Inc., priority 2017, dated 2022)
